According to patent US20250325643A1:
No constants are given. Whether binding was seen depends on the method and setting. Some results given as binding are weak or reduced against the parent protein; the word gives no strength. Tags and fused reporters may be left off the sequences shown.

Sequences of proteins named here, by UniProt entry; tags and fusion partners are left off. A change or cut given only in a name is not applied to a line headed by its entry.
UniProt P26842: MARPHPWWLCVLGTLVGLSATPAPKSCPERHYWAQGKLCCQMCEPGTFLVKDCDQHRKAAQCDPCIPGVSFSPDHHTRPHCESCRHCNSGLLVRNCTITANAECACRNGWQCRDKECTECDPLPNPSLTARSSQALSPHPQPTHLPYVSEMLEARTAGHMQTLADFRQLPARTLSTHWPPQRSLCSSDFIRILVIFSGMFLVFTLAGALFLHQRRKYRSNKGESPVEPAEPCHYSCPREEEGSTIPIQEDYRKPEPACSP

Tests used:
[1] = molecular target: human CD27 expressed on cells (T cells, transfected HEK293F cells, Daudi cells, NFκB-luc2/CD27 Jurkat reporter cells) (human) (UniProt P26842); test: flow cytometry on HEK293F cells transiently transfected with human CD27, PE-labelled goat anti-human IgG, median MFI PE
[2] = molecular target: human CD27 expressed on cells (T cells, transfected HEK293F cells, Daudi cells, NFκB-luc2/CD27 Jurkat reporter cells) (human) (UniProt P26842); test: flow cytometry on human T cells and HEK293F cells transfected with human CD27
[3] = molecular target: human CD27 expressed on cells (T cells, transfected HEK293F cells, Daudi cells, NFκB-luc2/CD27 Jurkat reporter cells) (human) (UniProt P26842); test: flow cytometry on T cells and transfected HEK293F cells
[4] = molecular target: human CD27 expressed on cells (T cells, transfected HEK293F cells, Daudi cells, NFκB-luc2/CD27 Jurkat reporter cells) (human) (UniProt P26842); test: flow cytometry on T cells in human PBMC (endogenous CD27), PE-labelled goat anti-human IgG, median MFI PE

- binding [1]: binds
- binding [2]: binds
- binding [3]: binds
- binding [4]: binds
B1: IgG1-CD27-A carrying mutations F405L-L234F-L235E-D265A in the IgG Fc domain (antibody, V domains shown)
VH: QVQLMQSGSELKKPGASVKVSCRASGYTFTTYAMNWVRQAPGQGPEWMGWINTNTGNPTYAQGFTGRFVFSLDTTVTTTYLQISSLKAEDTAVYFCAREAGSFDYWGQGTLVTVSS
VL: QSALTQPASVSGSPGQSITISCTGTSSDVYYYNYVSWYQQHPGRAPKLVIYDVSNRPSGVSNRFSGSKSGNTASLTISGLRAEDEADYYCSSYTVNRVWVFGGGTKLTVL
